Data as given in PubChem BioAssay AID624150 (Cancer Research UK Cambridge, 2012).

Purpose: 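Which chromatin factors steer differentiation of epidermal stem cells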 (primary screen)
Cell system: primary human epidermal keratinocytes
Reagent: siRNA pool against human genes, 1-2 µM siRNA in 20 µl nucleofection
Timing: 72 h after transfection plus 48 h differentiation (about 5 days)
Conditions: five arms for 48 h: vehicle, AG1478 10 µM, BMP2/7 200 ng/ml, both together, or 10% serum
Measurement: 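Transglutaminase 1 immunostaining divided by DNA staining in each well, background removed, then z-scored versus every test siRNA on that plate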
Direction: z-score, vehicle and z-score, AG1478 10 µM and z-score, BMP2/7 200 ng/ml and z-score, AG1478 with BMP2/7 and z-score, 10% serum: higher = more differentiation marker per cell
Here is a random part of 331 deposited reagents. 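Each arm had three replicate z-scores, but only the first replicate is printed; higher values mean more differentiation marker per cell.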

| target gene | z-score, vehicle | z-score, AG1478 10 µM | z-score, BMP2/7 200 ng/ml | z-score, AG1478 with BMP2/7 | z-score, 10% serum |
| --- | --- | --- | --- | --- | --- |
| MBD1 (methyl-CpG binding domain protein 1) | 0.208 | 0.914 | 1.5 | -0.103 | 0.769 |
| TDRD10 (tudor domain containing 10) | 0.0291 | -0.668 | -0.642 | -0.564 | 0.0463 |
| JADE2 (jade family PHD finger 2) | -0.311 | -0.425 | -0.691 | -0.387 | -0.737 |
| PHF11 (PHD finger protein 11) | -0.687 | -0.68 | -0.0309 | 0.0599 | -0.289 |
| KMT2E (lysine methyltransferase 2E (inactive)) | -1.63 | -1.31 | -1.52 | -1.27 | 0.112 |
| SP110 (SP110 nuclear body protein) | -0.831 | -0.906 | -1.19 | -1.22 | -0.737 |
| HDAC3 (histone deacetylase 3) | 0.704 | 0.493 | 1.37 | -0.451 | -0.601 |
| EZH1 (enhancer of zeste 1 polycomb repressive complex 2 subunit) | -0.51 | 0.121 | -0.175 | 0.418 | 0.411 |
| HR (HR lysine demethylase and nuclear receptor corepressor) | 0.669 | -0.408 | 0.45 | 0.0917 | 0.0624 |
| TRMT11 (tRNA methyltransferase 11) | -1.07 | -1.21 | 0.515 | -2.04 | -1.34 |
| PHF23 (PHD finger protein 23) | 0.0964 | 0.221 | 0.23 | 0.368 | -0.389 |
| SIRT6 (sirtuin 6) | -1.3 | -0.77 | -0.874 | -0.372 | -0.829 |
| KDM2B (lysine demethylase 2B) | 1.04 | 0.151 | -0.412 | 0.527 | -0.12 |
| MLH1 (mutL homolog 1) | 0.707 | 0.511 | -1 | -0.814 | -0.527 |
| JMJD4 (jumonji domain containing 4) | 1.19 | 1.49 | 1.44 | 1.2 | 1.88 |
| SIRT2 (sirtuin 2) | 0.102 | -1.62 | 0.422 | -1.39 | -0.224 |
| PRDM5 (PR/SET domain 5) | -0.378 | 0.664 | 1.03 | 0.591 | 0.879 |
| HDAC6 (histone deacetylase 6) | -0.321 | 1.23 | 1.07 | 2.31 | 1.14 |
| ING4 (inhibitor of growth family member 4) | 0.475 | 0.527 | 1.12 | 0.171 | 0.224 |
| SHMT2 (serine hydroxymethyltransferase 2) | -0.5 | -0.297 | -0.541 | -0.312 | 0.304 |
| CHD9 (chromodomain helicase DNA binding protein 9) | 0.0318 | -0.177 | -0.013 | -0.398 | 0.0949 |
| JADE3 (jade family PHD finger 3) | -0.429 | 0.633 | -0.848 | 0.292 | -0.388 |
| BAZ2A (bromodomain adjacent to zinc finger domain 2A) | 0.876 | 1.53 | 1.24 | 0.569 | 0.761 |
| RBBP7 (RB binding protein 7, chromatin remodeling factor) | 0.216 | -0.412 | -0.305 | -0.781 | 0.0775 |
| KDM8 (lysine demethylase 8 (putative)) | -0.121 | -0.149 | 0.111 | -0.0998 | 0.245 |
| DOT1L (DOT1 like histone lysine methyltransferase) | 1.33 | 1.41 | 2.06 | 1.71 | 0.385 |
| ZCWPW2 (zinc finger CW-type and PWWP domain containing 2) | -0.664 | -0.732 | -0.707 | -0.279 | -1 |
| TAF3 (TATA-box binding protein associated factor 3) | -0.177 | -0.458 | 0.506 | 0.152 | -0.847 |
| BRD3 (bromodomain containing 3) | 0.0107 | 0.23 | -0.345 | 0.604 | 0.844 |
| SETD3 | -0.28 | -0.196 | -0.153 | 0.391 | 0.417 |
| MSL3 (MSL complex subunit 3) | -0.516 | -0.862 | -0.187 | -0.782 | -0.412 |
| SIRT3 (sirtuin 3) | 0.272 | -0.699 | -0.159 | -2.17 | 0.147 |
| EHMT1 (euchromatic histone lysine methyltransferase 1) | 1.89 | 2.53 | 1.97 | 1.67 | -0.384 |
| CBX1 (chromobox 1) | -0.234 | 0.336 | -0.0572 | -0.669 | 0.74 |

Records above whose target name begins with K or k (3):
| target gene | z-score, vehicle | z-score, AG1478 10 µM | z-score, BMP2/7 200 ng/ml | z-score, AG1478 with BMP2/7 | z-score, 10% serum |
| --- | --- | --- | --- | --- | --- |
| KMT2E (lysine methyltransferase 2E (inactive)) | -1.63 | -1.31 | -1.52 | -1.27 | 0.112 |
| KDM2B (lysine demethylase 2B) | 1.04 | 0.151 | -0.412 | 0.527 | -0.12 |
| KDM8 (lysine demethylase 8 (putative)) | -0.121 | -0.149 | 0.111 | -0.0998 | 0.245 |
